Our source for the Inhibition values is ChEMBL document CHEMBL4513158, “CO-ADD screening of RKDF (India) compounds”.

The list shows a part of the results. Potency and affinity values are given separately.

The test system of this assay is Acinetobacter baumannii. The note with it: Concentration 32 ug.mL-1; ASSAY_TEST Inhibition of Bacterial Growth; detection method Absorption (OD600); MEDIA CAMHB; plate type 384well; NBS; CORNING #3640; time 18 hr.
By Inhibition is commonly meant the change of the read-out against control, counted positive when it falls. A higher Inhibition goes with a response far below the control. `CN(C)C(=N)NC(=N)N.Cl` [METFORMIN HYDROCHLORIDE] yielded an Inhibition of 16.43%. The compound `C=C[C@H]1[C@H](O[C@@H]2O[C@H](CO)[C@@H](O)[C@H](O)[C@H]2O)OC=C2C(=O)OCC[C@]21O` [SWERTIAMARIN] registered an Inhibition of 18.59%.
